Whole data set: some 33,000 sequences, median “E-score (-0.5 to 0.5)” near -8e-05, cut for the highest 2% near 0.23. The list shows a part of the results.
The sequences below were run against T1, Nrg2 (UniProt P38082) (assay: PBM E-score (8-mer binding enrichment) (E-score (-0.5 to 0.5)); higher = stronger / more preferred TF binding). Settings: protein concentration: 100 nM; construct: GST-full length.
T1 sequence: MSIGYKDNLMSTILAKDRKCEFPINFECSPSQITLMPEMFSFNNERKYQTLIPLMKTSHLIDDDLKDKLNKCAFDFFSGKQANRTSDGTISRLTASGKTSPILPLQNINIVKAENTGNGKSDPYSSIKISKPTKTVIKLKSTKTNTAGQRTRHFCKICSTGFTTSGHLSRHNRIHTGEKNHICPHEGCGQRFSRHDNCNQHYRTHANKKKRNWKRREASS
Outline: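 Each ungapped eight-base word and its reverse complement, pooled, received an E-score from the Universal PBM Analysis Suite. Underlying scans, normalised with masliner, recorded fluorescent anti-GST bound to GST-tagged yeast transcription factors. These were applied at about 100-200 nM to universal all-10-mer Agilent arrays double-stranded by primer extension.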

Row | Sequence | PBM E-score
1 | ATAATATG | 0.198
2 | CCGTTTTC | 0.171
3 | CCCCTGTC | -0.151
4 | ACCTTGTA | -0.0587
5 | GTCGGTGA | -0.137
6 | GATCCCTA | 0.017
7 | CACGAAAA | 0.116
8 | CAAAACTA | 0.107
9 | AATCCTCA | 0.0177
10 | AAGCTGCC | -0.0372
11 | CAACCGTA | -0.296
12 | AAATAGCG | 0.0976
13 | GGATCGAA | -0.0362
14 | CGCTATCA | -0.0404
15 | GACGCACC | -0.00744
16 | CCGAGAAC | 0.0941
17 | ACGCTGCA | -0.151
18 | GCTCTCAC | -0.127
19 | CCTCACCC | -0.112
20 | AAGCTCAT | 0.0806
21 | AGGATCCA | -0.094
22 | AACGCTAC | -0.119
23 | AACCTCTT | 0.0815
24 | ATATCGTC | 0.0583
25 | GCAAATCA | 0.137

Row | Sequence | PBM E-score
26 | CTCCGCTA | -0.0936
27 | AAGTCCGC | -0.00618
28 | CGCCTGCC | -0.168
29 | GCTACCGA | -0.156
30 | AGGTCCGG | -0.173
31 | ACAGAACG | -0.0392
32 | GAAAGTTC | -0.214
33 | GAAGATTC | 0.0833
34 | AAGAGTTC | 0.00919
35 | GATCGAAA | 0.108
36 | TCCTTCGA | -0.115
37 | ATAAGGTA | 0.0215
38 | GTACTCTA | 0.0349
39 | GCTGCCGA | -0.0879
40 | CCGCCTAA | -0.0285
41 | GAACACTC | 0.0516
42 | CTTTCGCC | -0.195
43 | AGTAGGTA | -0.00752
44 | ACAACGCT | -0.0257
45 | TAACACAA | -0.0353
46 | AGACAAGA | 0.181
47 | AACGTCCT | 0.0158
48 | AATTGCGA | 0.0736
49 | CGGTAGAC | 0.0168
50 | AATATCAA | 0.0718

Row | Sequence | PBM E-score
51 | ACAGGTCC | 0.0426
52 | AGCTTGGA | 0.058
53 | ATCCGGAC | -0.16
54 | GATAGAAC | 0.0331
55 | ATTGCTGA | 0.118
56 | AGATCTTC | -0.0494
57 | ATTGGTTG | 0.168
58 | AAGAACGC | 0.0465
59 | CTCGAGCC | -0.0275
60 | CCCGGGGA | -0.102
61 | ATAAAAAT | 0.122
62 | CTGTAATA | 0.119
63 | ATTTACAC | 0.00228
64 | CCCCATTA | -0.0614
65 | GAATGTAC | 0.0946
66 | CCGGCCAG | 0.0298
67 | CAATGTAC | -0.186
68 | GGATCAAC | 0.0726
69 | GATGACTA | -0.0735
70 | ATACTAGC | 0.167
71 | AGCGGACT | -0.21
72 | AACGTTAA | -0.0543
73 | ATTAGGAA | 0.0529
74 | GATTTCCC | 0.0108
75 | CGGCTAAC | 0.0262

Row | Sequence | PBM E-score
76 | CTTTAGAC | -0.0193
77 | GTCTATTA | 0.0378
78 | CACCCGTG | -0.0637
79 | CGTGGTTC | 0.0979
80 | AATTCCCC | 0.0175
81 | TCCTGTCA | -0.0951
82 | CTAGGAAG | -0.127
83 | AAGTTCGC | 0.0698
84 | ACTGCCCC | 0.0792
85 | GGAATGAA | 0.19
86 | AAGTACAT | 0.0528
87 | TCAGTAGA | -0.0922
88 | AGTTCAAA | 0.0881
89 | AACCCTAT | 0.195
90 | AGGCCTAG | -0.17
91 | CAGAATAA | 0.158
92 | CTGCAGAC | 0.00549
93 | ATAAATAG | 0.0238
94 | GCATTATA | 0.00208
95 | CCAGATAC | -0.0175
96 | GCTCAATA | 0.196
97 | CAATCTAC | -0.101
98 | GGTGCGAC | -0.0718
99 | CTGAGTAC | -0.0335
100 | GCTCGGCA | 0.0294

Row | Sequence | PBM E-score
101 | CGTCTAAA | -0.142
102 | CCGGCATA | -0.188
103 | AACAATGC | 0.181
104 | TCTCCACA | -0.0518
105 | CACTGCGG | 0.0758
106 | CAGAGGCC | -0.207
107 | GTATGGAC | 0.0505
108 | GGATATCA | 0.0217
109 | GCGCACGA | 0.238
110 | AAGGACCC | 0.146
111 | AAGACCCT | 0.291
112 | ACGAGATA | -0.00105
113 | GAAAATCC | -0.035
114 | TCTACTCA | -0.0218
115 | AACTCCCC | 0.0612
116 | CCTATTCA | -0.0401
117 | CACTTGGC | -0.0246
118 | CCGTAATC | 0.0439
119 | CCGTCGTA | -0.0709
120 | CCTTAGAG | -0.305
121 | CGAACTCG | 0.0595
122 | AGGCGATG | -0.138
123 | GAGAGGAC | -0.109
124 | CCTCAGCA | -0.0245
125 | ACTCGCAG | 0.0701

Row | Sequence | PBM E-score
126 | TTATAAAA | 0.181
127 | GAACTGTC | 0.0447
128 | AAGCTCCC | -0.16
129 | GGTTATGA | -0.0752
130 | CAGGCTCA | -0.0296
131 | GGTGATCA | -0.0383
132 | AGCGCCGG | -0.164
133 | AACCAGTT | 0.178
134 | GGCTAAGA | -0.141
135 | TACTGAAA | 0.242
136 | AGACATTG | -0.0811
137 | ACGGAGTA | -0.158
138 | GCCCCGAC | -0.121
139 | CGTACACC | -0.0188
140 | ACGCGCGT | 0.17
141 | AAAGGGCT | -0.187
142 | AGCCTCGG | -0.172
143 | ACGTACAC | -0.0301
144 | AGATGTCA | 0.0439
145 | TATTATAA | 0.0806
146 | CCAAAACG | 0.0677
147 | AAGAGCCC | -0.17
148 | CCACAGGA | -0.082
149 | TACACCAA | 0.0384
150 | AATAGTCT | -0.0972

Four entries drawn at random from the list so far, as already listed:
Row | Sequence | PBM E-score
57 | ATTGGTTG | 0.168
31 | ACAGAACG | -0.0392
116 | CCTATTCA | -0.0401
24 | ATATCGTC | 0.0583

Further results:

Row | Sequence | PBM E-score
151 | AGGCCACT | -0.0372
152 | TCGCAGAA | -0.114
153 | ACAGTTTC | 0.259
154 | AACTGCCC | 0.0668
155 | CCCCAGCA | 0.122
156 | GCAGTTGA | 0.0825
157 | ATGTCGGC | 0.00767
158 | TACCAAGA | 0.105
159 | CACCCGAC | -0.0642
160 | CTGGCGTC | -0.104
161 | AAGCGCCA | -0.287
162 | CCTTTTCA | 0.0701
163 | ATTCCCTA | 0.108
164 | AGTCCAAA | 0.0189
165 | ATTGTTGC | -0.0433
166 | ACTTCAAT | 0.081
167 | AGCTACTC | -0.117
168 | CCACGACC | -0.101
169 | GCTACATA | -0.0565
170 | CGGTCATC | -0.0794
171 | AGCCACTA | -0.00796
172 | AGCTCGGC | 0.0788

From the supplement of paper PMC3334620
